The values that follow come from US6270990.

Chains of the proteins cited; added tags and fusions are not shown. Chains listed by the source or under a name are the forms on record and can include a tag or linker.
NRSF lambda-H1 clone product (partial NRSF) (Homo sapiens), one chain, as listed by the source: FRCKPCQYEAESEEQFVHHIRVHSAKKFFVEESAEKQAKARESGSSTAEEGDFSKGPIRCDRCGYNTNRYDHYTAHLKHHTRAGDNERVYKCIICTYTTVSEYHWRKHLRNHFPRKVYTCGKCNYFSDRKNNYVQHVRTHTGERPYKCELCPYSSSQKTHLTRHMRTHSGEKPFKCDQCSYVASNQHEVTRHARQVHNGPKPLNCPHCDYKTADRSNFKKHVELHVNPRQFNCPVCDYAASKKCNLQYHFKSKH

The test system of series [1] is NRSF lambda-H1 clone product (partial NRSF) (Homo sapiens). Kind of series: EMSA. Particulars: probe with two S36 copies; supershifted by anti-GST-lambdaH1; also bound in library filter screen; protein translated in vitro; protein details: poly-histidine fusion (pRSET B); label: 32P (probe, two tandem copies); letters built from the parent sequence and the stated change.

The test system of series [2] is NRSF lambda-HZ4 (partial) (Homo sapiens). Description: activity in cells. To be noted: PC12 cells, pCAT3-S36++ CAT reporter; without NRSE 1.5 fold at maximum; protein in cells; protein details: vector-provided initiating Met (pcDNA3-ATG); letters built from the parent sequence and the stated change; only the site is given.

The exact form of at least one protein or probe is not confirmed.

For the sequence “AGCTGCAAAGCCATTTCAGCACCACGGAGAGTGCCTCTGC (double strand) [S36 (SCG10 NRSE)]”, in series [1], the binding result is on record as “binds”. Besides, the “activity on this sequence” value in series [2] is recorded as “active”.
